Results taken from PubChem BioAssay AID2685 (National Center for Advancing Translational Sciences (NCATS), 2010).
The other results are listed elsewhere or left out. The main result of the screen is listed elsewhere. These columns were measured beside it and carry no call. Most of these compounds were active or inconclusive in the main read-out, so they are no random draw. The note in brackets gives the kind of curve behind each potency; many fits are weak.

Test: qHTS Assay for Lipid Storage Modulators in Drosophila S3 Cells;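 as to cell number change: cells counted by Cell Tracker Red CMTPX staining in the red channel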
Settings: BODIPY lipid droplet fluorescence, 18-24 h; for cell number change: measured here: cell count max response, cells fed with added oleic acid
Procedure, shortened: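 Drosophila S3 cells loaded with oleic acid (400 uM, as added) and compounds at several concentrations; lipid droplets imaged by 488-nm laser-scanning cytometry, 500–530 nm intensity and object ratio to cell channel. Percent activity normalized to 20 uM Triacsin C.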

[1] = measured here: lipid fluorescence (Fed channel) AC50, cells fed with added oleic acid
[2] = measured here: cell number channel AC50, cells fed with added oleic acid

| Compound | cell number change [%] | AC50 [1] | AC50 [2] |
| --- | --- | --- | --- |
| O=C(NCC1(c2ccccc2)CCCC1)c1ccccc1 | 7.57 | 1.16 µM [falling, single point] | – |
| COc1ccc(-c2nc(CS(=O)(=O)CC(=O)NCc3cccc(Br)c3)c(C)o2)cc1 | – | 14.6 µM [falling, partial curve] | – |
| COc1ccccc1C(=O)N1CCN(C2CCN(Cc3ccccc3)CC2)CC1 | -5.94 | – | – |
| CCc1ccc(NC(=O)CSc2nc(=O)n3cc(C)ccc3n2)cc1 | – | 2.59 µM [rising, partial curve] | – |
| COc1ccc(CCNC(=O)c2oc3ccc(OC)cc3c2C)cc1 | 16.7 | 10.3 µM [rising, partial curve] | – |
| O=C(Nc1ccc(Cl)c(Cl)c1)c1ccc(Cl)c(Cl)c1 | -0.865 | – | – |
| CCOc1ccc(Br)cc1S(=O)(=O)Nc1cccnc1 | -5.26 | – | – |
| COC(=O)C1=C(C(=O)OC)C(c2ccccc2O)c2sc(=O)[nH]c2S1 (configuration not stated) | 17.1 | 20.6 µM [rising, single point] | – |
| Cc1nc2scc(C)n2c(=O)c1S(=O)(=O)NCc1ccc(F)cc1 | 5.9 | 29.1 µM [rising, partial curve] | – |
| Cc1ccc(NC(=S)Nc2cccc3cnccc23)c(C)c1 | – | – | 6.51 µM [rising, single point] |
| Cc1cccc(C)c1OCc1cc(C(=O)N2CCCC2c2nonc2C)no1 (configuration not stated) | 12.2 | 0.411 µM [rising, partial curve, poor fit] | – |
| COc1ccccc1/C=C/C(=O)c1ccc(NC(C)=O)cc1 | -24.4 | 6.51 µM [falling, partial curve] | – |
| Cc1cc(Br)ccc1NC(=S)NC1CCCC1 | -31.7 | – | 0.82 µM [falling, full curve, poor fit] |
| CCC(=O)Nc1ccc(C(=O)COC(=O)C(CCSC)NC(=O)COc2ccccc2)cc1 (configuration not stated) | 12.5 | – | – |
| CN(CC(=O)Nc1ccccc1C(F)(F)F)C(=O)COc1ncnc2ccccc12 | -23.1 | – | – |
| O=C(Nc1ccccc1N1CCCCC1)c1ccccc1F | -34.8 | 0.259 µM [rising, full curve, poor fit] | 13 µM [falling, partial curve, poor fit] |
| CN(CC(=O)Nc1ccc([N+](=O)[O-])cc1Br)Cc1c(F)cccc1Cl | – | – | 6.51 µM [rising, single point] |
| Cc1cccc(Nc2nc(N)c([N+](=O)[O-])c(N3CCOCC3)n2)c1 | 25.4 | – | – |
| Cc1cc(C)nc(N2CCN(c3ncnc4c3oc3ccccc34)CC2)n1 | -6.23 | – | 2.59 µM [rising, single point] |
| CC(=O)NC12CC3CC(C1)CC(C(=O)Nc1nccs1)(C3)C2 | 7.46 | 0.651 µM [falling, single point] | – |
| Cc1ccc(NC(=O)COC(=O)C2=COCCO2)cc1 | -24.7 | – | 0.092 µM [falling, full curve, poor fit] |

| Compound | cell number change [%] | AC50 [1] | AC50 [2] |
| --- | --- | --- | --- |
| Cc1ccc(C(=O)N/C(=C\c2cn(C)c3ccccc23)C(=O)NCCCN2CCOCC2)cc1 | 0.708 | 29.1 µM [rising, single point] | – |
| COc1ccc(/C=C(\C#N)C(=O)OCC(=O)NCc2ccccc2OC)cc1 | 6.99 | – | – |
| COc1cc(CNc2nc3ccccc3s2)cc(OC)c1OC | 11 | – | – |
| COc1cc(CN(C(=O)c2ccco2)c2ccc(C)cc2)ccc1O | -12 | – | – |
| Cc1cccc(C)c1NC(=O)CNC(=O)C(C)N1CCCCC1 (configuration not stated) | 15 | 4.11 µM [falling, single point] | – |
| CCCC(=O)Oc1ccc(N(C(=O)CCC)S(=O)(=O)c2cccs2)cc1 | -0.228 | – | – |
| COc1cc(Cl)c(C)cc1NC(=O)c1cc(S(=O)(=O)N(C)C)ccc1N1CCCC1 | -43.7 | – | 0.517 µM [falling, partial curve] |
| CC(=O)c1cccc(N(C(=O)CNC(=O)c2ccco2)C(C(=O)NC2CCCC2)c2ccncc2)c1 (configuration not stated) | 17.5 | – | – |
| CCCCCCCCCc1nc2sc3c(c2c(=O)n1NC(=O)c1ccc([N+](=O)[O-])cc1)CC(C)(C)OC3 | 0.829 | – | – |
| COc1cccc(N2CC(O)=C(c3nc4ccccc4c(=O)[nH]3)C2=N)c1 | 37.1 | 0.651 µM [rising, full curve] | 1.16 µM [rising, full curve] |
| C#CC[N+](C)(C)CCCCCCCCC | 5.34 | – | – |
| Cc1cccc(C(C)C)c1NC(=O)COC(=O)c1cccc(S(=O)(=O)N2CCc3ccccc3C2)c1 | -0.649 | 4.11 µM [falling, full curve] | 0.058 µM [falling, full curve] |
| COC(=O)c1ccccc1NC(=O)COC(=O)c1cccnc1 | 29.7 | – | 0.231 µM [rising, full curve, poor fit] |
| COCc1c(C(=O)Nc2ccc3nc(N4CCOCC4)sc3c2)oc2ccccc12 | 7.15 | 0.00461 µM [falling, full curve, poor fit] | – |
| CC(C)N(Cc1ccccc1)C(=O)CN1C(=O)NC2(CCCCCC2)C1=O | -40.6 | 16.4 µM [falling, single point] | 14.6 µM [falling, single point] |
| COC(=O)Cc1ccc(NC(=S)NNC(=O)C2CC2)cc1 | -33.7 | – | 0.326 µM [falling, full curve] |
| CC(=O)Nc1sc2c(c1C#N)CCN(Cc1ccccc1)C2 | -2.02 | 3.26 µM [falling, single point] | – |
| Cc1ccc(C(=O)Nc2cccc(-c3nc4ncccc4o3)c2)cc1 | 13.7 | 1.3 µM [rising, full curve] | 0.058 µM [rising, full curve, poor fit] |
| CCCC(=O)C1=C(O)C(C(=O)OC)C(C)(C)CC1=N (configuration not stated) | 33.8 | 1.46 µM [falling, full curve] | 29.1 µM [rising, single point] |
| Cn1c(N)c(N=O)c(=O)n(C)c1=O | – | – | 0.58 µM [rising, single point] |
| O=C1c2[nH]nc(-c3ccccc3O)c2C(c2ccccc2)N1Cc1ccco1 (configuration not stated) | – | 0.651 µM [falling, single point] | 0.82 µM [falling, single point] |

2 consecutive compounds out of the list so far:

| Compound | cell number change [%] | AC50 [1] | AC50 [2] |
| --- | --- | --- | --- |
| CC(=O)Nc1sc2c(c1C#N)CCN(Cc1ccccc1)C2 | -2.02 | 3.26 µM [falling, single point] | – |
| Cc1ccc(C(=O)Nc2cccc(-c3nc4ncccc4o3)c2)cc1 | 13.7 | 1.3 µM [rising, full curve] | 0.058 µM [rising, full curve, poor fit] |
